In PubChem BioAssay AID1487 (National Center for Advancing Translational Sciences (NCATS), 2009):
The list shows a part of the results. Shown are side measurements of this screen, not its main read-out; they come without a call. Compounds called inactive in the main read-out are mostly missing here. Words in brackets tell the shape of the fitted curve; partial curves, single points and poor fits give uncertain potencies.

Test: qHTS Assay for Modulators of Lamin A Splicing
Conditions: HeLa LMNA splicing GFP/RFP minigene ratio, 48 h
In short: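 Read-out is the ratio of GFP to DsRed2 object intensity, acquired by 488 nm laser-scanning cytometry on HeLa lamin A-EGFP minigene reporter cells. Compound incubation 48 hrs at 37 °C in Opti-MEM with 2% FBS; DMSO 0.5% final.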

[1] = measured here: GFP splicing reporter channel
[2] = measured here: RFP viability control channel

With `CCCn1c(SCC(=O)Nc2cccc(NC(C)=O)c2)nnc1C(C)C` the AC50 [1] was 15.8 µM [rising, single point] and the AC50 [2] was 25.1 µM [rising, single point].
For `CCOc1ccc(NC(=S)Nc2cccc3cnccc23)cc1`, the AC50 [2] was 5.62 µM [rising, full curve].
For `Cc1ccc(OCCOc2cccc(Br)c2)c([N+](=O)[O-])n1`, the AC50 [1] was 14.1 µM [rising, single point] and the AC50 [2] was 25.1 µM [rising, single point].
For `O=C(Cn1nnc(-c2ccc(Cl)cc2)n1)NC1CC2CCC1C2` (stereo not given), the AC50 [2] was 14.1 µM [rising, single point].
In the case of `COc1ccc(C2CC(c3ccccc3)=NN2c2ccc(N)cc2)cc1` (stereo not given), the AC50 [1] is reported as 35.5 µM [rising, single point] and the AC50 [2] is reported as 14.1 µM [rising, single point].
With `CCc1ccc(NC2CC(=O)N(CCc3ccc(OC)c(OC)c3)C2=O)cc1` (stereo not given) the AC50 [1] was 2.24 µM [rising, single point].
In the case of `CC1CCN(S(=O)(=O)c2ccc3c(ccc(=O)n3CC(=O)NCc3ccccc3)c2)CC1`, the AC50 [1] is reported as 10 µM [falling, partial curve] and the AC50 [2] is reported as 28.2 µM [falling, partial curve].
For `COc1ccccc1NC(=O)C1=C(C)Nc2nnnn2C1c1cc(Br)ccc1OC` (stereo not given), the AC50 [1] was 35.5 µM [falling, single point].
In the case of `CC1CCCCC1NC(=O)/C(C#N)=C/c1ccc(F)c(F)c1` (stereo not given), the AC50 [1] is reported as 14.1 µM [rising, single point] and the AC50 [2] is reported as 25.1 µM [rising, single point].
With `Cc1ccc(C)c(NC(=O)CSc2nnc(NC(=O)Nc3ccccc3)s2)c1` the AC50 [2] was 12.6 µM [falling, partial curve, poor fit].
With `Clc1ccccc1-c1nccc(NCc2ccccc2)n1` the AC50 [1] was 11.2 µM [falling, partial curve].
For `C=C1C(=O)OC2C[C@@]3(C)CCCC(C)C3=CC12` (stereo not given in full), the AC50 [1] was 3.55 µM [falling, full curve] and the AC50 [2] was 7.08 µM [falling, partial curve].
In the case of `CCN1CCN(Cc2nc3cc(NC(=O)c4cccc([N+](=O)[O-])c4)ccc3n2CC)CC1`, the AC50 [1] is reported as 0.178 µM [falling, full curve, poor fit].
For `CS(=O)(=O)Nc1ccc(Cc2ccc(NS(C)(=O)=O)cc2)cc1`, the AC50 [2] was 15.8 µM [rising, single point].
In the case of `Cc1cccnc1Nc1nc(-c2ccccn2)cs1`, the AC50 [2] is reported as 0.891 µM [rising, full curve].
In the case of `O=C(N/N=C\c1cccc(Cl)c1)c1n[nH]c2c1CCCC2`, the AC50 [2] is reported as 15.8 µM [rising, partial curve, poor fit].
In the case of `Brc1ccc(-c2nnc3n2-c2ccccc2CC3)cc1`, the AC50 [1] is reported as 12.6 µM [rising, single point].
In the case of `Cc1cc(/C=C2\SC(=S)N(Cc3ccco3)C2=O)c(C)n1-c1ccccc1`, the AC50 [1] is reported as 6.31 µM [rising, partial curve] and the AC50 [2] is reported as 15.8 µM [rising, partial curve].
In the case of `COc1ccccc1CCn1c(=O)c(-c2cccs2)nc2cncnc21`, the AC50 [1] is reported as 10 µM [falling, partial curve].
For `COc1cc([N+](=O)[O-])ccc1NC(=O)Cc1ccccc1`, the AC50 [2] was 11.2 µM [falling, partial curve].
For `Cc1cccc(-c2nc(C#N)c(NC3CCCCC3)o2)c1`, the AC50 [2] was 14.1 µM [rising, single point].
For `N#C/C(=C\c1ccc(N2CCCCC2)o1)C(N)=O`, the AC50 [2] was 35.5 µM [falling, single point].
For `O=C(c1ccc(Cl)cc1)N1CCC(c2nc(-c3cccs3)no2)CC1`, the AC50 [1] was 15.8 µM [rising, single point] and the AC50 [2] was 35.5 µM [rising, single point].
For `OCc1cn(-c2ccccc2)nc1-c1ccc2c(c1)OCCO2`, the AC50 [2] was 35.5 µM [rising, single point].
In the case of `CCN[C@@H]1C[C@H](C)S(=O)(=O)c2sc(S(N)(=O)=O)cc21`, the AC50 [1] is reported as 0.398 µM [falling, full curve] and the AC50 [2] is reported as 0.224 µM [falling, full curve].
For `CCCCOCCCNc1ncnc2c1[nH]c1ccccc12`, the AC50 [2] was 5.01 µM [rising, full curve].
For `O=C(/C=C/c1ccc(Cl)cc1Cl)NCCSc1ccccc1`, the AC50 [1] was 35.5 µM [rising, single point] and the AC50 [2] was 17.8 µM [rising, single point].
In the case of `O=C(NNC(=O)c1c(F)cccc1F)c1ccccc1-n1cccc1`, the AC50 [1] is reported as 6.31 µM [rising, single point].
In the case of `Cc1ccc2cc(CN(CC3CCCO3)C(=S)Nc3ccccc3)c(=O)[nH]c2c1C` (stereo not given), the AC50 [2] is reported as 5.01 µM [rising, single point].
With `COC(=O)c1c(C)oc2ccc(N(C(=O)Oc3ccccc3)S(=O)(=O)c3ccc(Cl)c([N+](=O)[O-])c3)cc12` the AC50 [2] was 14.1 µM [rising, partial curve].
With `O=C(c1ccccc1F)N1CCN(c2ccc([N+](=O)[O-])c(NCC3CCCO3)c2)CC1` (stereo not given) the AC50 [1] was 3.55 µM [falling, single point] and the AC50 [2] was 5.62 µM [falling, partial curve, poor fit].
In the case of `Cc1ccc(-n2cccc2/C=C2/C(=N)N3C(=NC2=O)SN=C3S(C)(=O)=O)cc1`, the AC50 [1] is reported as 5.62 µM [rising, partial curve, poor fit].
For `COc1cc(CN2CCN(c3cccc(Cl)c3)CC2)cc(OC)c1OC`, the AC50 [2] was 7.08 µM [rising, partial curve].
In the case of `Cc1cc(C(=O)COC(=O)c2ccc(N)c([N+](=O)[O-])c2)c(C)n1-c1ccc2c(c1)OCO2`, the AC50 [1] is reported as 8.91 µM [rising, partial curve] and the AC50 [2] is reported as 14.1 µM [rising, partial curve].
For `O=C(/C=C/c1ccco1)N1CCCC(c2ccccc2)C1` (stereo not given), the AC50 [2] was 31.6 µM [falling, single point].
In the case of `COc1ccc(/C=C/C(=O)c2c(O)c(OC)c3occc3c2OC)cc1`, the AC50 [1] is reported as 11.2 µM [falling, partial curve, poor fit] and the AC50 [2] is reported as 35.5 µM [falling, single point].
For `CCCCCCS(=O)[C@H]1CS(=O)(=O)C[C@@H]1S(=O)CCCCCC` (stereo not given in full), the AC50 [2] was 35.5 µM [falling, single point].
